According to PubChem BioAssay AID493014 (National Center for Advancing Translational Sciences (NCATS), 2011):
Screen size: about 340,000 compounds; about 170 (0.05%) were called active. This list was built around the results that the source calls inconclusive (neither active nor inactive); the mix of calls is not that of the screen. The call rests on the fitted dose curve; in most records, active means well fitted inhibition curve with a large enough effect in the signal ratio, with a control signal flat (not every such curve was filed as active); inconclusive means small, poorly fitted or top-dose-only effect, or effect the other way, or a change in a side signal; inactive means flat fitted curve, though single readings scatter; the % refers to the signal ratio. A potency beside an inconclusive call is a rough fit, not a confirmed value.

Test: qHTS Assay to Find Inhibitors of Chronic Active B-Cell Receptor Signaling;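 on activity change, negative = inhibition: plate controls were basal doxycycline-induced cells for no effect and cells given 10 µM MG132 for full effect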
Details: ABC-DLBCL IkBa-CBG/CBR reporter, luminescence ratio (green luciferase fused to IkBa over red control in TMD8 lymphoma cells), 4 h; activity change, negative = inhibition: at 46.1 µM (top of the series) unless noted
Outline: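 Doxycycline induced both beetle luciferases in TMD8 lymphoma cells; IKK-driven degradation limits the IkappaBalpha-fused green signal, while red luminescence normalises for cell number and nonspecific effects. Compounds tested up to 46 uM, 4 hrs.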
Potency means the concentration at half of the fitted maximal effect.

| Compound | Potency | activity change, negative = inhibition |
| --- | --- | --- |
| CCOc1ccc(NC(=O)c2cnsn2)cc1 | inconclusive: 18.4 µM [falling, single point] |  |
| COc1ccc(C2CC(c3ccccc3)=NN2S(=O)(=O)c2ccccc2)cc1 (stereo not given) |  | inconclusive: 7.36% |
| Cc1ccc2nc(-c3cccc(NS(C)(=O)=O)c3)cc(-c3ccccc3)c2c1 |  | inconclusive: -5.8% |
| CC1CCN(CCC(=O)N/N=C/c2ccc([N+](=O)[O-])cc2)CC1 |  | inconclusive: -18.3% |
| CC(C)C(NC(=O)c1ccccc1)C(=O)OCn1nnc2ccccc2c1=O (stereo not given) |  | inactive |
| Cn1c(=O)n(C)c2cc(/C=N/NC(=O)c3cc4cc(Br)ccc4o3)ccc21 |  | inconclusive: 18.4% |
| Cc1ccc(-c2nnc(Nc3ccc4c(c3)OCO4)c3ccccc23)cc1S(N)(=O)=O |  | inconclusive: 0.582% |
| C=CCNC(=S)Nc1sc2c(c1C(N)=O)CCCC2 |  | inactive |
| CC(C)C(=O)Nc1cc(C(F)(F)F)ccc1N1CCOCC1 |  | inactive |
| O=C(O)CS(=O)CC(=O)Nc1cccc(C(F)(F)F)c1 (stereo not given) |  | inconclusive: 1.27% |
| COc1ccc(C(=O)NC2CCCCCC2)cc1OC1CCN(C(C)=O)CC1 | inconclusive: 31.6 µM [falling, single point] |  |
| N#Cc1c(N)n(CCOC(=O)c2ccc(Cl)cc2)c2nc3ccccc3nc12 |  | inconclusive: 2.24% |
| c1ccc(-n2ncc3c2ncn2cnnc32)cc1 |  | inconclusive: 0.0174% |
| COCc1cc(=O)[nH]c(-c2csc(C)n2)n1 |  | inactive |
| Cc1ccc2oc(=O)c3cnn(CC(=O)NCCN4CCOCC4)c3c2c1 |  | inconclusive: 1.82% |
| O=C(O)c1cccc(N2C(=O)/C(=C/c3ccc([N+](=O)[O-])cc3)C=C2c2ccccc2)c1 |  | inconclusive: 323% |
| O=C(c1ccncc1)N1CCN(S(=O)(=O)c2cccc(Cl)c2)CC1 |  | inactive |
| Cc1cccc(-n2cc(-c3ccccc3)c3c(=O)[nH]cnc32)c1 |  | inactive |
| COc1cccc(NC(=O)CN2CCN(S(=O)(=O)c3ccc(C(C)C)cc3)CC2)c1 |  | inactive |
| COc1ccc(C(=O)Nc2ncc(C)s2)cc1S(=O)(=O)N1CCOCC1 |  | inconclusive: 8.51% |
| O=C(Nc1ncc(Cc2ccccc2)s1)c1cccs1 |  | inconclusive: -4.14% |
| COc1ccc(S(=O)(=O)Nc2cccc3c2O[C@H](CN(C)Cc2ccc(Cl)c(Cl)c2)[C@@H](C)CN([C@H](C)CO)C3=O)cc1 |  | inconclusive: -1.17% |
| CCOC(=O)c1cnc(-n2nc(C)cc2C)nc1NC1CCCC1 | inconclusive: 8.91 µM [falling, partial curve, poor fit] |  |
| CCN1CCc2c(C#N)c(N3CCCCC3)nc(N3CCOCC3)c2C1 |  | inactive |
| c1ccc2c(c1)Sc1ccccc1-n1cnnc1-2 | inconclusive: 18.4 µM [falling, partial curve, poor fit] |  |
| O=C(CCc1nc2ccccc2c(=O)[nH]1)N1CCN(S(=O)(=O)c2ccccc2Br)CC1 | inconclusive: 9.2 µM [falling, partial curve] |  |
| O=C(COC(=O)c1cccc(S(=O)(=O)N2CCN(c3ccccc3)CC2)c1)NCc1ccco1 |  | inconclusive: 3.77% |

Ordered by count of non-hydrogen atoms (low to high): part of the list above.

| Compound | Potency | activity change, negative = inhibition |
| --- | --- | --- |
| c1ccc2c(c1)Sc1ccccc1-n1cnnc1-2 | inconclusive: 18.4 µM [falling, partial curve, poor fit] |  |
| CCOC(=O)c1cnc(-n2nc(C)cc2C)nc1NC1CCCC1 | inconclusive: 8.91 µM [falling, partial curve, poor fit] |  |
| COc1cccc(NC(=O)CN2CCN(S(=O)(=O)c3ccc(C(C)C)cc3)CC2)c1 |  | inactive |
| O=C(O)c1cccc(N2C(=O)/C(=C/c3ccc([N+](=O)[O-])cc3)C=C2c2ccccc2)c1 |  | inconclusive: 323% |

Gathered by group, those above containing a nitro group on carbon (two)

| Compound | Potency | activity change, negative = inhibition |
| --- | --- | --- |
| CC1CCN(CCC(=O)N/N=C/c2ccc([N+](=O)[O-])cc2)CC1 |  | inconclusive: -18.3% |
| O=C(O)c1cccc(N2C(=O)/C(=C/c3ccc([N+](=O)[O-])cc3)C=C2c2ccccc2)c1 |  | inconclusive: 323% |

The list goes on:

| Compound | Potency | activity change, negative = inhibition |
| --- | --- | --- |
| CCN(CC)c1nc(N)c2c(N)nc3c(c2c1C#N)CC(c1ccccc1)O3 (stereo not given) |  | inconclusive: 5.58% |
| Cc1snc(S(=O)(=O)/C(C#N)=N/Nc2cccc(C(F)(F)F)c2)c1C#N |  | inconclusive: 28.6% |
| Cc1ccc(C(=O)O/N=C(\N)c2ccccc2)c(Cl)c1 | inconclusive: 35.5 µM [falling, single point] |  |
| COc1ccc(NC(=O)CSc2nnc(-c3cccs3)n2Cc2ccco2)cc1OC |  | inconclusive: -1.09% |
| COc1ccc(C2=NOC(C(=O)Nc3ccc4c(c3)OCCO4)C2)c(OC)c1 (stereo not given) | inconclusive: 17.8 µM [falling, partial curve] |  |
| COC(=O)c1ccc(CNC(=O)COC(=O)/C=C/c2cc(OC)c(OC)c(OC)c2)cc1 |  | inconclusive: 0.35% |
| COc1ccc(-c2nc(N)n(C(=O)c3ccc(C)cc3)n2)cc1 |  | inconclusive: -0.974% |
| Cc1ccc(C(=O)NCCSc2c(C)[nH]c3ccccc23)cc1[N+](=O)[O-] | inconclusive: 23.1 µM [falling, single point] |  |
| O=C(c1ccccc1)c1nn(-c2ccc(Cl)cc2)c(=O)cc1C(F)(F)F | inconclusive: 1.12 µM [falling, full curve, poor fit] |  |
| CCOCCCNC(=O)NC12CC3CC(CC(C3)C1)C2 |  | inconclusive: 0.846% |
| Cc1ccc[n+](-c2nc([O-])sc2/C=N/Nc2ccc([N+](=O)[O-])cc2)c1 |  | inconclusive: 9.17% |
| CCOc1ccc(S(=O)(=O)c2cn(C)c3cc(OC)c(OC)cc3c2=O)cc1 |  | inactive |
| Nc1cc(N2CCCCC2)c(Cl)cc1[N+](=O)[O-] |  | inconclusive: 6.24% |
| O=C(NCCc1nc2ccccc2[nH]1)c1cc([N+](=O)[O-])cc([N+](=O)[O-])c1 |  | inconclusive: 7.21% |
| COc1cccc(N2CC(O)=C(c3nc4ccccc4s3)C2=N)c1 |  | inconclusive: -7.17% |
| c1ccc(N2CCN(c3nnc(Cc4cccnc4)c4ccccc34)CC2)nc1 |  | inconclusive: 3.06% |
| C=C1SC(Nc2c(C)cc(C)cc2C)=NC12CCCCC2 |  | inconclusive: -30.1% |
| CCCOc1ccc(C2C(=O)N(C3CCCCCC3)CC(=O)N2CCC)cc1OC (stereo not given) |  | inconclusive: -9.97% |
| COC(=O)N1C(=O)[C@@](c2ccccc2)(C2CCCCC2)N1C(=O)OC | inconclusive: 15.8 µM [falling, partial curve, poor fit] |  |
| O=C(/C=C/c1c(F)cccc1Cl)N1CCc2ccccc2C1 |  | inactive |
| CCOC(=O)/C(C#N)=C/C1=C(N2CCOCC2)CC(C)(C)OC1 |  | inconclusive: 3.61% |
| CCc1ccccc1NC1=NCC(=O)N1C1CCCC1 |  | inconclusive: -1.31% |
| COc1ccc(C(=O)O/N=C(\N)c2ccccc2)cc1 | inconclusive: 22.4 µM [falling, partial curve] |  |
| CCCOC(=O)c1ccc(-c2c(C)noc2-c2ccc(OC)cc2O)o1 | inconclusive: 3.66 µM [falling, full curve] |  |
| CCn1c(SCC(=O)c2ccc(F)cc2)nnc1-c1ccoc1C |  | inconclusive: -18.3% |
| COc1ccc(NC(=O)c2cc(-c3cccc(OC)c3)on2)cc1 | inconclusive: 8.91 µM [falling, partial curve, poor fit] |  |
| CCN(CC)C(=O)COc1ccc2c3c(c(=O)oc2c1)CCCC3 |  | inconclusive: 2.68% |

| Compound | Potency | activity change, negative = inhibition |
| --- | --- | --- |
| COc1ccc(S(=O)(=O)Nc2c(C)cc(C)cc2C)c2cccnc12 |  | inactive |
| CCOC(=O)C1NN=C(C(=O)c2ccccc2)C1c1ccccc1 (stereo not given) |  | inconclusive: 5.44% |
| NC1=NCC(O)=C1c1nc2ccccc2[nH]1 | inconclusive: 10 µM [falling, partial curve, poor fit] |  |
| CC1CC(C)CN(C(=O)c2cccc(N3C(=O)c4ccccc4C3=O)c2)C1 (stereo not given) |  | inactive |
| C=C(C)CNC(=S)NNC(=O)c1ccco1 | inconclusive: 29.1 µM [falling, single point] |  |
| O=C(Cc1ccccc1)NC(c1ccco1)c1c(O)ccc2ccccc12 (stereo not given) | inconclusive: 11.2 µM [falling, partial curve, poor fit] |  |
| CN(C)CCCN(C(=O)COc1ccccc1)c1nc2cc3c(cc2s1)OCO3 |  | inconclusive: -17.9% |
| Cc1ccc(Nc2nnc(-c3ccc(C)c(S(N)(=O)=O)c3)c3ccccc23)cc1 |  | inconclusive: -0.874% |
| CC(C(=O)N1CCc2ccccc21)N1CCN(S(=O)(=O)c2ccc(C(F)(F)F)cc2)CC1 (stereo not given) |  | inconclusive: 2.15% |
| O=C(N/N=C/c1cccc(O)c1)c1csc2ccccc12 |  | inconclusive: -15% |
| Cc1[nH]c2ccccc2c1SCC(=O)N1CCCc2ccccc21 |  | inconclusive: 7.34% |
| O=C(N/N=C(\c1ccccc1)c1ccccn1)c1cccc([N+](=O)[O-])c1 | inconclusive: 11.2 µM [falling, partial curve, poor fit] |  |
| O=C(c1ccc2c(=O)n(C3CCCC3)c(=S)[nH]c2c1)N1CCCCCC1 | inconclusive: 1.78 µM [rising, full curve, poor fit] |  |
| Cc1ccc(-c2noc(CCCOc3ccc(Cl)cc3Cl)n2)cc1 |  | inconclusive: 10.7% |
| Cc1ccc(S(=O)(=O)NC(C)(C)C)cc1C(=O)OCC(=O)N1CCCC1=O |  | inactive |
| Cc1ccc(CSCC(=O)N(C)CC(=O)Nc2ccc(Br)cc2C)cc1 |  | inconclusive: -14.2% |
| COc1ccc(NC(=O)CN(C)CC(=O)Nc2cccc(C(F)(F)F)c2)cc1 | inconclusive: 12.6 µM [falling, partial curve] |  |
| O=C(c1ccc(NC(=S)NCc2ccc(Cl)cc2)cc1)N1CCCCC1 |  | inactive |
| O=c1nc(Nc2cccc(Cl)c2)oc2cc(Cl)oc(=O)c12 |  | inconclusive: -3.57% |
| CCc1ccc(CN2CCCC(CCC(=O)N3CCN(c4ccccn4)CC3)C2)o1 (stereo not given) |  | inactive |
| CC1=NN(C(N)=S)C(=O)C1N=Nc1c(C)cc(C)cc1C (stereo not given) |  | inactive |
| O=C(Oc1ccc2c(c1)OCC2=O)c1ccccc1 |  | inconclusive: 17.1% |
| CSc1nc(SCC(=O)O)c2sc3nc(-c4ccccc4)c4c(c3c2n1)CCC4 |  | inconclusive: -20% |
| O=c1cc(CSc2ccccc2)nc(-c2ccncc2)[nH]1 | inconclusive: 35.5 µM [falling, single point] |  |
| Nc1c(C(=O)NCCN2CCOCC2)c2nc3ccccc3nc2n1-c1ccccc1 |  | inconclusive: 6.89% |
| COCCSc1nnc(NS(=O)(=O)Cc2ccccc2)s1 |  | inconclusive: 12.6% |
